The list shows only some results of the screen, not a fair sample: it gathers tests that were run many times, whatever their T/C, doses with no T/C, and many T/C values between a quarter and a half above the control. Other doses and runs of a compound stand elsewhere. T/C: endpoint of the treated group in % of that of the vehicle group. Some doses have a count of surviving animals in place of a T/C: the source holds a T/C of zero for them, seemingly a mark for toxic or unscored doses. Some survivor counts are full or nearly so, which does not show that the dose was tolerated: the source hardly ever lists a survival T/C far under the control, and the zero likely stands for such cases as well. Survivors were counted at the toxicity check, usually on the fifth day, unless a day is given; later deaths do not show. Schedules are NCI's codes, taken here to give the interval after Q, in days (D) or hours (H), and the number of doses after X. Some schedules carry Z or #; the key to these is not given. Some entries hold several experiments; the results are listed from low to high.
Tested on: L1210 leukemia ip in BDF1 mice, survival T/C
Experiment: NCI In Vivo Anticancer Drug Screen. Data for tumor model L1210 Leukemia (intraperitoneal) in B6D2F1 (BDF1) mice
Conditions: higher T/C = longer survival
[1] = T/C endpoint: mean survival time, dose: 400.0 mg/kg/injection, schedule: Q04DX002 (ip), vehicle: Klucel (hydroxypropylcellulose) (HPC)

In the case of c1ccc([P+](c2ccccc2)(c2ccccc2)C2CCC2)cc1, the survivor count (T/C endpoint: mean survival time, dose: 37.5 mg/kg/injection, schedule: Q01DX009 (ip), vehicle: saline with Tween-80) is reported as 0 of 6.

For NC(CSS(=O)(=O)O)=NCCCc1ccccc1, the survivor count (T/C endpoint: mean survival time, dose: 50.0 mg/kg/injection, schedule: Q04DX002 (ip), vehicle: Klucel (hydroxypropylcellulose) (HPC)) was 0 of 3, the survivor count (T/C endpoint: mean survival time, dose: 100.0 mg/kg/injection, schedule: Q04DX002 (ip), vehicle: Klucel (hydroxypropylcellulose) (HPC)) was 3 of 3 and the survivor count (T/C endpoint: mean survival time, dose: 200.0 mg/kg/injection, schedule: Q04DX002 (ip), vehicle: Klucel (hydroxypropylcellulose) (HPC)) was 2 of 3. For the same compound, the survivor count [1] was 0 of 3.

For CCn1c(O)c(C=N)c(=O)n(CC)c1=O, the survivor count (T/C endpoint: mean survival time, dose: 200.0 mg/kg/injection, schedule: Q01DX009 (ip), vehicle: saline) was 4 of 6 and the survivor count (T/C endpoint: mean survival time, dose: 400.0 mg/kg/injection, schedule: Q01DX009 (ip), vehicle: saline) was 1 of 6.

For Clc1ccc(C[As+](c2ccccc2)(c2ccccc2)c2ccccc2)cc1, the survivor count (T/C endpoint: mean survival time, dose: 10.0 mg/kg/injection, schedule: Q01DX001 (ip), vehicle: saline) was 6 of 6, the survivor count (T/C endpoint: mean survival time, dose: 40.0 mg/kg/injection, schedule: Q01DX001 (ip), vehicle: saline) was 0 of 6 and the survivor count (T/C endpoint: mean survival time, dose: 75.0 mg/kg/injection, schedule: Q01DX001 (ip), vehicle: saline) was 0 of 6. The survivor count (T/C endpoint: mean survival time, dose: 150.0 mg/kg/injection, schedule: Q01DX001 (ip), vehicle: saline) was 0 of 6 and the survivor count (T/C endpoint: mean survival time, dose: 300.0 mg/kg/injection, schedule: Q01DX001 (ip), vehicle: saline) was 0 of 6.

COc1cc([C@@H]2c3cc4c(c(O)c3C[C@H]3COC(=O)[C@@H]32)OCO4)cc(OC)c1OC was tested, and the survivor count (T/C endpoint: mean survival time, dose: 2.25 mg/kg/injection, schedule: Q01DX Z (ip), vehicle: saline) was 7 of 8, the survivor count (T/C endpoint: mean survival time, dose: 3.3 mg/kg/injection, schedule: Q01DX Z (ip), vehicle: saline) was 7 of 8 and the survivor count (T/C endpoint: mean survival time, dose: 5.0 mg/kg/injection, schedule: Q01DX Z (ip), vehicle: saline) was 7 of 8. The survivor count (T/C endpoint: mean survival time, dose: 7.5 mg/kg/injection, schedule: Q01DX Z (ip), vehicle: saline) was 6 of 8, the survivor count (T/C endpoint: mean survival time, dose: 100.0 mg/kg/injection, schedule: Q01DX001 (ip), vehicle: saline) was 0 of 4 and 0 of 6 and the survivor count (T/C endpoint: mean survival time, dose: 200.0 mg/kg/injection, schedule: Q01DX001 (ip), vehicle: saline) was 0 of 4. For the same compound, the survivor count (T/C endpoint: mean survival time, dose: 400.0 mg/kg/injection, schedule: Q01DX001 (ip), vehicle: saline) was 0 of 4 and the survivor count (T/C endpoint: median survival time, dose: 4.0 mg/kg/injection, schedule: Q01DX009 (ip), vehicle: Klucel (hydroxypropylcellulose) (HPC)) was 5 of 8.

[NH-]C(CC(N)=O)C(=O)O.[NH-]C(CC(N)=O)C(=O)O.[Ni+2] (stereo unspecified) was tested, and the survivor count (T/C endpoint: mean survival time, dose: 50.0 mg/kg/injection, schedule: Q01DX009 (ip), vehicle: water) was 3 of 6, the survivor count (T/C endpoint: mean survival time, dose: 100.0 mg/kg/injection, schedule: Q01DX009 (ip), vehicle: water) was 0 of 6 and the survivor count (T/C endpoint: mean survival time, dose: 100.0 mg/kg/injection, schedule: Q04DX002 (ip), vehicle: saline) was 2 of 3. The survivor count (T/C endpoint: mean survival time, dose: 200.0 mg/kg/injection, schedule: Q04DX002 (ip), vehicle: saline) was 0 of 3, the survivor count (T/C endpoint: mean survival time, dose: 200.0 mg/kg/injection, schedule: Q04DX003 (ip), vehicle: water) was 1 of 6 and the survivor count (T/C endpoint: mean survival time, dose: 400.0 mg/kg/injection, schedule: Q04DX002 (ip), vehicle: saline) was 0 of 3. For the same compound, the survivor count (T/C endpoint: mean survival time, dose: 400.0 mg/kg/injection, schedule: Q04DX003 (ip), vehicle: water) was 0 of 6.

CNCCCN(C)CCCNC was tested, and the survivor count (T/C endpoint: mean survival time, dose: 200.0 mg/kg/injection, schedule: Q04DX003 (ip), vehicle: saline) was 5 of 6 and the survivor count (T/C endpoint: mean survival time, dose: 400.0 mg/kg/injection, schedule: Q04DX003 (ip), vehicle: saline) was 1 of 6.

In the case of CON1C(=O)c2ccccc2S1=O (stereo unspecified), the survivor count [1] is reported as 0 of 3.

With O=C(/C=C/c1ccc(Cl)cc1)CCN1CCC2CCC(C2)C1 (stereo unspecified) the survivor count (T/C endpoint: mean survival time, dose: 200.0 mg/kg/injection, schedule: Q01DX001 (ip), vehicle: carboxymethylcellulose (CMC)) was 2 of 4 and the survivor count (T/C endpoint: mean survival time, dose: 400.0 mg/kg/injection, schedule: Q01DX001 (ip), vehicle: carboxymethylcellulose (CMC)) was 2 of 4.

With N#C/C(=C\c1ccccc1)c1cccc(Cl)c1 the survivor count (T/C endpoint: mean survival time, dose: 400.0 mg/kg/injection, schedule: Q01DX009 (ip), vehicle: other) was 6 of 6.

With O=C(O)C(F)(F)C(F)(F)C(F)(F)F.[Ag] the survivor count (T/C endpoint: mean survival time, dose: 75.0 mg/kg/injection, schedule: Q01DX001 (ip), vehicle: acetone) was 3 of 6, the survivor count (T/C endpoint: mean survival time, dose: 150.0 mg/kg/injection, schedule: Q01DX001 (ip), vehicle: acetone) was 0 of 6 and the survivor count (T/C endpoint: mean survival time, dose: 300.0 mg/kg/injection, schedule: Q01DX001 (ip), vehicle: acetone) was 0 of 6.
